Assay results: US10391076B2, “Anti-cancer agent comprising aminoacetonitrile compound as active ingredient” (Pitney Pharmaceuticals Pty Limited, priority 2015, dated 2019)
Some entries share one result that the patent states for a list of compounds. For some assays here: At least one structure is not confirmed: it was looked up by name or label, or the drawing left a doubt.

Experiments:
Assay type in all cases: cell-based
[1] = system: colon cancer (HT-295m21); experiment: Cell proliferation inhibition test, colon cancer (HT-295m21); conditions: 30 μM, similar to Example 1
[2] = system: mesothelioma (PET); experiment: Cell proliferation inhibition test, mesothelioma (PET); conditions: 30 μM, same manner as Example 1
[3] = system: human breast cancer cell line (MCF-7); experiment: MCF-7 cell proliferation inhibitory activity test (sulforhodamine B); conditions: 30 μM, 72 hr culture
[4] = system: stomach cancer (MKN45); experiment: Cell proliferation inhibition test, stomach cancer (MKN45); conditions: 30 M (so in the source), similar to Example 1

SMILES: Cn1nc(OC(F)F)cc1C(=O)NC(C)(C#N)COc1ccccc1Cl (centres unmarked) [5-74]
- cell proliferation inhibitory effect against HT-295m21 [1]: not less than 50%
- cell proliferation inhibitory effect against PET [2]: not less than 50%

SMILES: COc1cscc1C(=O)NC(C)(C#N)COc1ccc(SC(F)(F)F)cc1 (centres unmarked) [6-108]
- cell proliferation inhibitory effect against MCF-7 [3]: not less than 50%
- cell proliferation inhibitory effect against MKN45 [4]: not less than 50%
- cell proliferation inhibitory effect against HT-295m21 [1]: not less than 50%
- cell proliferation inhibitory effect against PET [2]: not less than 50%

SMILES: COc1cc(C(=O)NC(C)(C#N)COc2cc(C#N)ccc2C(F)(F)F)cc(Cl)n1 (centres unmarked) [5-19]
- cell proliferation inhibitory effect against MCF-7 [3]: not less than 50%
- cell proliferation inhibitory effect against MKN45 [4]: not less than 50%
- cell proliferation inhibitory effect against HT-295m21 [1]: not less than 50%
- cell proliferation inhibitory effect against PET [2]: not less than 50%

SMILES: Cc1nc(-c2ccc(Cl)cc2)sc1C(=O)NC(C)(C#N)COc1ccc(SC(F)(F)F)cc1 (centres unmarked) [6-30]
- cell proliferation inhibitory effect against MCF-7 [3]: not less than 50%
- cell proliferation inhibitory effect against MKN45 [4]: not less than 50%
- cell proliferation inhibitory effect against HT-295m21 [1]: not less than 50%
- cell proliferation inhibitory effect against PET [2]: not less than 50%

SMILES: CC(C#N)(COc1cccc([S+]([O-])C(F)(F)F)c1)NC(=O)Cc1ccc(SC(F)(F)F)cc1 (centres unmarked) [2-144]
- cell proliferation inhibitory effect against MKN45 [4]: not less than 50%

SMILES: CC(C#N)(COc1ccccc1Oc1ccccc1)NC(=O)c1ccc(C(F)(F)F)cc1 (centres unmarked) [1-74]
- cell proliferation inhibitory effect against MKN45 [4]: not less than 50%
- cell proliferation inhibitory effect against PET [2]: not less than 50%

SMILES: CC(C)(C)C#Cc1ccc(OCC(C)(C#N)NC(=O)c2ccc(Cl)cc2)cc1 (centres unmarked) [1-95]
- cell proliferation inhibitory effect against MKN45 [4]: not less than 50%
- cell proliferation inhibitory effect against HT-295m21 [1]: not less than 50%
- cell proliferation inhibitory effect against PET [2]: not less than 50%

SMILES: CC(C#N)(COc1ccc(C#Cc2ccccc2)cc1)NC(=O)c1ccc(SC(F)(F)F)cc1 (centres unmarked) [1-93]
- cell proliferation inhibitory effect against MCF-7 [3]: not less than 50%
- cell proliferation inhibitory effect against MKN45 [4]: not less than 50%
- cell proliferation inhibitory effect against HT-295m21 [1]: not less than 50%
- cell proliferation inhibitory effect against PET [2]: not less than 50%

SMILES: Cc1cc(C(=O)NC(C)(C#N)COc2cc(C#N)ccc2C(F)(F)F)n(C)n1 (centres unmarked) [5-55]
- cell proliferation inhibitory effect against MCF-7 [3]: not less than 50%
- cell proliferation inhibitory effect against MKN45 [4]: not less than 50%

SMILES: CCOc1ncccc1C(=O)NC(C)(C#N)COc1ccccc1Cl (centres unmarked) [5-8]
- cell proliferation inhibitory effect against MCF-7 [3]: not less than 50%
- cell proliferation inhibitory effect against MKN45 [4]: not less than 50%
- cell proliferation inhibitory effect against HT-295m21 [1]: not less than 50%
- cell proliferation inhibitory effect against PET [2]: not less than 50%

SMILES: CC(C#N)(COc1cc(C#N)ccc1C(F)(F)F)NC(=O)Cc1ncc(C(F)(F)F)cc1Cl (centres unmarked) [2-128]
- cell proliferation inhibitory effect against HT-295m21 [1]: not less than 50%
- cell proliferation inhibitory effect against PET [2]: not less than 50%

SMILES: CC(C#N)(COc1ccc(-c2ccccc2)cc1)NC(=O)Cc1ccc(SC(F)(F)F)cc1 (centres unmarked) [2-135]
- cell proliferation inhibitory effect against MKN45 [4]: not less than 50%
- cell proliferation inhibitory effect against HT-295m21 [1]: not less than 50%

SMILES: COC(C(=O)NC(C)(C#N)COc1cc(C#N)ccc1C(F)(F)F)c1ccc(C(F)(F)F)cc1 (centres unmarked) [2-130]
- cell proliferation inhibitory effect against MKN45 [4]: not less than 50%
- cell proliferation inhibitory effect against HT-295m21 [1]: not less than 50%
- cell proliferation inhibitory effect against PET [2]: not less than 50%

SMILES: CC(C#N)(COc1cccc([S+]([O-])C(F)(F)F)c1)NC(=O)Cc1ccc(SC(F)(F)F)cc1 (centres unmarked) [2-141]
- cell proliferation inhibitory effect against HT-295m21 [1]: not less than 50%
- cell proliferation inhibitory effect against PET [2]: not less than 50%

SMILES: COc1cscc1C(=O)NC(C)(C#N)COc1ccccc1Cl (centres unmarked) [6-107]
- cell proliferation inhibitory effect against MCF-7 [3]: not less than 50%
- cell proliferation inhibitory effect against MKN45 [4]: not less than 50%
- cell proliferation inhibitory effect against HT-295m21 [1]: not less than 50%
- cell proliferation inhibitory effect against PET [2]: not less than 50%

SMILES: CC(C#N)(COc1ccccc1-c1ccccc1)NC(=O)Cc1ccc(SC(F)(F)F)cc1 (centres unmarked) [2-136]
- cell proliferation inhibitory effect against MKN45 [4]: not less than 50%
- cell proliferation inhibitory effect against HT-295m21 [1]: not less than 50%
- cell proliferation inhibitory effect against PET [2]: not less than 50%

SMILES: Cc1nn(C)c(C(=O)NC(C)(C#N)COc2cc(C#N)ccc2C(F)(F)F)c1Cl (centres unmarked) [5-52]
- cell proliferation inhibitory effect against MCF-7 [3]: not less than 50%
- cell proliferation inhibitory effect against PET [2]: not less than 50%

SMILES: Cc1nc(-c2ccccc2)sc1C(=O)NC(C)(C#N)COc1ccc(SC(F)(F)F)cc1 (centres unmarked) [6-24]
- cell proliferation inhibitory effect against MCF-7 [3]: not less than 50%
- cell proliferation inhibitory effect against MKN45 [4]: not less than 50%
- cell proliferation inhibitory effect against HT-295m21 [1]: not less than 50%
- cell proliferation inhibitory effect against PET [2]: not less than 50%

SMILES: Cc1nn(C)c(C(=O)NC(C)(C#N)COc2ccc(SC(F)(F)F)cc2)c1C (centres unmarked) [5-60]
- cell proliferation inhibitory effect against MCF-7 [3]: not less than 50%
- cell proliferation inhibitory effect against HT-295m21 [1]: not less than 50%
- cell proliferation inhibitory effect against PET [2]: not less than 50%

SMILES: CC(C#N)(COc1ccc(-c2ccccc2)cc1)NC(=O)c1ccc(C(F)(F)F)cc1 (centres unmarked) [1-73]
- cell proliferation inhibitory effect against HT-295m21 [1]: not less than 50%
- cell proliferation inhibitory effect against PET [2]: not less than 50%

SMILES: Cc1nc(C)c(C(=O)NC(C)(C#N)COc2ccc(SC(F)(F)F)cc2)s1 (centres unmarked) [6-18]
- cell proliferation inhibitory effect against MCF-7 [3]: not less than 50%
- cell proliferation inhibitory effect against MKN45 [4]: not less than 50%
- cell proliferation inhibitory effect against PET [2]: not less than 50%

SMILES: CC(C)c1cc(C(=O)NC(C)(C#N)COc2cc(C#N)ccc2C(F)(F)F)n(C)n1 (centres unmarked) [5-61]
- cell proliferation inhibitory effect against MCF-7 [3]: not less than 50%
- cell proliferation inhibitory effect against MKN45 [4]: not less than 50%
- cell proliferation inhibitory effect against HT-295m21 [1]: not less than 50%
- cell proliferation inhibitory effect against PET [2]: not less than 50%

SMILES: Cc1nc(NC(=O)OC(C)(C)C)sc1C(=O)NC(C)(C#N)COc1ccccc1Cl (centres unmarked) [6-50]
- cell proliferation inhibitory effect against MKN45 [4]: not less than 50%
- cell proliferation inhibitory effect against PET [2]: not less than 50%

SMILES: CCOc1ncccc1C(=O)NC(C)(C#N)COc1ccc(SC(F)(F)F)cc1 (centres unmarked) [5-9]
- cell proliferation inhibitory effect against MCF-7 [3]: not less than 50%
- cell proliferation inhibitory effect against MKN45 [4]: not less than 50%
- cell proliferation inhibitory effect against HT-295m21 [1]: not less than 50%
- cell proliferation inhibitory effect against PET [2]: not less than 50%

SMILES: Cc1nn(C)c(Oc2ccccc2)c1C(=O)NC(C)(C#N)COc1ccc(SC(F)(F)F)cc1 (centres unmarked) [5-45]
- cell proliferation inhibitory effect against MCF-7 [3]: not less than 50%
- cell proliferation inhibitory effect against MKN45 [4]: not less than 50%
- cell proliferation inhibitory effect against HT-295m21 [1]: not less than 50%
- cell proliferation inhibitory effect against PET [2]: not less than 50%

SMILES: Cc1nn(C)c(Cl)c1C(=O)NC(C)(C#N)COc1ccc(SC(F)(F)F)cc1 (centres unmarked) [5-51]
- cell proliferation inhibitory effect against MCF-7 [3]: not less than 50%
- cell proliferation inhibitory effect against MKN45 [4]: not less than 50%
- cell proliferation inhibitory effect against PET [2]: not less than 50%

SMILES: CC(C#N)(COc1cc(C#N)ccc1C(F)(F)F)NC(=O)C(F)c1ccc(C(F)(F)F)cc1 (centres unmarked) [2-129]
- cell proliferation inhibitory effect against MKN45 [4]: not less than 50%
- cell proliferation inhibitory effect against HT-295m21 [1]: not less than 50%
- cell proliferation inhibitory effect against PET [2]: not less than 50%

SMILES: Cc1onc(Cl)c1C(=O)NC(C)(C#N)COc1ccc(SC(F)(F)F)cc1 (centres unmarked) [6-66]
- cell proliferation inhibitory effect against MCF-7 [3]: not less than 50%
- cell proliferation inhibitory effect against MKN45 [4]: not less than 50%
- cell proliferation inhibitory effect against HT-295m21 [1]: not less than 50%
- cell proliferation inhibitory effect against PET [2]: not less than 50%

SMILES: Cn1nc(C(F)(F)F)c(Cl)c1OCC(C)(C#N)NC(=O)Cc1ccc(SC(F)(F)F)cc1 (centres unmarked) [2-138]
- cell proliferation inhibitory effect against MKN45 [4]: not less than 50%
- cell proliferation inhibitory effect against HT-295m21 [1]: not less than 50%
- cell proliferation inhibitory effect against PET [2]: not less than 50%

SMILES: Cn1ncc(C(=O)NC(C)(C#N)COc2ccc(SC(F)(F)F)cc2)c1C(F)(F)F (centres unmarked) [5-33]
- cell proliferation inhibitory effect against HT-295m21 [1]: not less than 50%

SMILES: CC(C#N)(COc1cc(C#N)ccc1C(F)(F)F)NC(=O)c1nnc(C(F)(F)F)s1 (centres unmarked) [1-69]
- cell proliferation inhibitory effect against HT-295m21 [1]: not less than 50%
- cell proliferation inhibitory effect against PET [2]: not less than 50%

SMILES: CN1CCOc2cc(C(=O)NC(C)(C#N)COc3cc(C#N)ccc3C(F)(F)F)cnc21 (centres unmarked) [6-76]
- cell proliferation inhibitory effect against PET [2]: not less than 50%

SMILES: CC(C#N)(COc1cc(C#N)ccc1-c1ccccc1)NC(=O)Cc1ccc(SC(F)(F)F)cc1 (centres unmarked) [2-139]
- cell proliferation inhibitory effect against MKN45 [4]: not less than 50%
- cell proliferation inhibitory effect against HT-295m21 [1]: not less than 50%
- cell proliferation inhibitory effect against PET [2]: not less than 50%

SMILES: CC(C#N)(COc1cccc(S(=O)(=O)C(F)(F)F)c1)NC(=O)Cc1ccc(SC(F)(F)F)cc1 (centres unmarked) [2-142]
- cell proliferation inhibitory effect against MKN45 [4]: not less than 50%
- cell proliferation inhibitory effect against HT-295m21 [1]: not less than 50%
- cell proliferation inhibitory effect against PET [2]: not less than 50%

SMILES: Cc1nn(C)c(C(=O)NC(C)(C#N)COc2ccccc2Cl)c1C (centres unmarked) [5-59]
- cell proliferation inhibitory effect against MCF-7 [3]: not less than 50%
- cell proliferation inhibitory effect against HT-295m21 [1]: not less than 50%

SMILES: CC(C#N)(COc1cc([N+](=O)[O-])ccc1C(F)(F)F)NC(=O)Cc1ccc(SC(F)(F)F)cc1 (centres unmarked) [2-132]
- cell proliferation inhibitory effect against MKN45 [4]: not less than 50%

SMILES: CC(C#N)(COc1cccc(SC(F)(F)F)c1)NC(=O)Cc1ccc(SC(F)(F)F)cc1 (centres unmarked) [2-143]
- cell proliferation inhibitory effect against MKN45 [4]: not less than 50%
- cell proliferation inhibitory effect against HT-295m21 [1]: not less than 50%
- cell proliferation inhibitory effect against PET [2]: not less than 50%

SMILES: Cc1cc(C(=O)NC(C)(C#N)COc2ccccc2Cl)n(C)n1 (centres unmarked) [5-56]
- cell proliferation inhibitory effect against MCF-7 [3]: not less than 50%
- cell proliferation inhibitory effect against HT-295m21 [1]: not less than 50%

SMILES: CC(C#N)(COc1cc(-c2ccccc2)ccc1C(F)(F)F)NC(=O)Cc1ccc(SC(F)(F)F)cc1 (centres unmarked) [2-137]
- cell proliferation inhibitory effect against HT-295m21 [1]: not less than 50%
- cell proliferation inhibitory effect against PET [2]: not less than 50%
